Numbers after ± are expanded uncertainties.
Assay: relative permittivity at various frequencies (dimensionless); xn = mol fraction of the nth substance listed
Conditions: 298.15 K, 101.33 kPa, Liquid, Frequency=0.03 MHz, Parallel plate capacitor

CCCCCCCCCO [nonan-1-ol] + CCCCCCCCCCCC
relative permittivity (x1 = 0.000477): 2.00782 ± 0.00037
relative permittivity (x1 = 0.001008): 2.00852 ± 0.00037
relative permittivity (x1 = 0.001576): 2.00927 ± 0.00037
relative permittivity (x1 = 0.002254): 2.01015 ± 0.00037
relative permittivity (x1 = 0.002998): 2.01112 ± 0.00037
relative permittivity (x1 = 0.003815): 2.0122 ± 0.00037
relative permittivity (x1 = 0.004639): 2.01329 ± 0.00037
relative permittivity (x1 = 0.005985): 2.01506 ± 0.00036
relative permittivity (x1 = 0.007553): 2.01703 ± 0.00034
relative permittivity (x1 = 0.009513): 2.01939 ± 0.00032
relative permittivity (x1 = 0.01235): 2.02255 ± 0.00029
relative permittivity (x1 = 0.01662): 2.02687 ± 0.00027
relative permittivity (x1 = 0.02124): 2.03118 ± 0.00026
relative permittivity (x1 = 0.0241): 2.0337 ± 0.00024
relative permittivity (x1 = 0.02897): 2.03784 ± 0.00023
relative permittivity (x1 = 0.03592): 2.04356 ± 0.00023
relative permittivity (x1 = 0.04265): 2.04902 ± 0.00023
relative permittivity (x1 = 0.04937): 2.05445 ± 0.00023
relative permittivity (x1 = 0.05678): 2.06047 ± 0.00023
relative permittivity (x1 = 0.06467): 2.06696 ± 0.00023
relative permittivity (x1 = 0.07288): 2.07381 ± 0.00024
relative permittivity (x1 = 0.08103): 2.08075 ± 0.00024
relative permittivity (x1 = 0.09058): 2.0891 ± 0.00025
relative permittivity (x1 = 0.1027): 2.09999 ± 0.00025

Reference: the NIST ThermoML archive (doi:10.1021/je050116g)
